# Screening data

The results are deposited in PubChem (AID504749; NCATS, 2011).

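Malaria parasite (P. falciparum) lines kept in red blood cells; parasite DNA is measured by SYBR Green fluorescence after lysis, 72 h after compound addition. Each compound was titrated across a series from about 0.000037 to 29 µM. The number is the fitted AC50, the concentration giving a half-maximal change in signal; a lower value means higher potency, whether the curve shows a decrease or an increase. Calls follow the curve class and fit quality: every row here is inconclusive, covering signal-raising curves and weak, poorly fitted, partial or highest-dose-only inhibition curves.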

Values are in µM. Every entry below has the call inconclusive. These entries are mostly ones the record files as inconclusive; other results of the assay are not listed here. A potency from a partial, single-point or poor curve is only a rough figure.

SMILES,condition,Potency (µM),curve as filed
Cc1cc2c(C(C)C)c(O)c(O)c(C=O)c2c(O)c1-c1c(C)cc2c(C(C)C)c(O)c(O)c(C=O)c2c1O,ATS95,11.22,"inhibitor, single point"
Cc1cc2c(C(C)C)c(O)c(O)c(C=O)c2c(O)c1-c1c(C)cc2c(C(C)C)c(O)c(O)c(C=O)c2c1O,CP250,15.85,"inhibitor, single point"
Cc1cc2c(C(C)C)c(O)c(O)c(C=O)c2c(O)c1-c1c(C)cc2c(C(C)C)c(O)c(O)c(C=O)c2c1O,PC26,15.1,"inhibitor, single point"
Cc1cc2c(C(C)C)c(O)c(O)c(C=O)c2c(O)c1-c1c(C)cc2c(C(C)C)c(O)c(O)c(C=O)c2c1O,CP191,17.78,"inhibitor, single point"
Cc1cc2c(C(C)C)c(O)c(O)c(C=O)c2c(O)c1-c1c(C)cc2c(C(C)C)c(O)c(O)c(C=O)c2c1O,CP211,16.94,"inhibitor, single point"
Cc1cc2c(C(C)C)c(O)c(O)c(C=O)c2c(O)c1-c1c(C)cc2c(C(C)C)c(O)c(O)c(C=O)c2c1O,CP297,9.528,"inhibitor, partial curve"
Cc1cc2c(C(C)C)c(O)c(O)c(C=O)c2c(O)c1-c1c(C)cc2c(C(C)C)c(O)c(O)c(C=O)c2c1O,CP185,11.22,"inhibitor, single point"
Cc1cc2c(C(C)C)c(O)c(O)c(C=O)c2c(O)c1-c1c(C)cc2c(C(C)C)c(O)c(O)c(C=O)c2c1O,N140,17.78,"inhibitor, single point"
Cc1cc2c(C(C)C)c(O)c(O)c(C=O)c2c(O)c1-c1c(C)cc2c(C(C)C)c(O)c(O)c(C=O)c2c1O,PC49,12.59,"inhibitor, single point"
Cc1cc2c(C(C)C)c(O)c(O)c(C=O)c2c(O)c1-c1c(C)cc2c(C(C)C)c(O)c(O)c(C=O)c2c1O,CP203,12,"inhibitor, single point"
Cc1cc2c(C(C)C)c(O)c(O)c(C=O)c2c(O)c1-c1c(C)cc2c(C(C)C)c(O)c(O)c(C=O)c2c1O,DIV30,13.46,"inhibitor, single point"
Cc1cc2c(C(C)C)c(O)c(O)c(C=O)c2c(O)c1-c1c(C)cc2c(C(C)C)c(O)c(O)c(C=O)c2c1O,CP192,15.1,"inhibitor, single point"
Cc1cc2c(C(C)C)c(O)c(O)c(C=O)c2c(O)c1-c1c(C)cc2c(C(C)C)c(O)c(O)c(C=O)c2c1O,TAB165,11.22,"inhibitor, single point"
Cc1cc2c(C(C)C)c(O)c(O)c(C=O)c2c(O)c1-c1c(C)cc2c(C(C)C)c(O)c(O)c(C=O)c2c1O,DIV17,16.94,"inhibitor, single point"
Cc1cc2c(C(C)C)c(O)c(O)c(C=O)c2c(O)c1-c1c(C)cc2c(C(C)C)c(O)c(O)c(C=O)c2c1O,CP315,19.01,"inhibitor, single point"
Cc1cc2c(C(C)C)c(O)c(O)c(C=O)c2c(O)c1-c1c(C)cc2c(C(C)C)c(O)c(O)c(C=O)c2c1O,TAB109,11.22,"inhibitor, single point"
Cc1cc2c(C(C)C)c(O)c(O)c(C=O)c2c(O)c1-c1c(C)cc2c(C(C)C)c(O)c(O)c(C=O)c2c1O,CP269,15.1,"inhibitor, single point"
Cc1cc2c(C(C)C)c(O)c(O)c(C=O)c2c(O)c1-c1c(C)cc2c(C(C)C)c(O)c(O)c(C=O)c2c1O,PC15,17.78,"inhibitor, single point"
Cc1cc2c(C(C)C)c(O)c(O)c(C=O)c2c(O)c1-c1c(C)cc2c(C(C)C)c(O)c(O)c(C=O)c2c1O,CP194,19.01,"inhibitor, single point"
CC(C(O)c1ccc(O)cc1)N1CCC(Cc2ccccc2)CC1 (stereo not given),CP297,10.69,"inhibitor, partial curve, poor fit"
CC(C(O)c1ccc(O)cc1)N1CCC(Cc2ccccc2)CC1 (stereo not given),SC27B,10,"inhibitor, single point"
CC(C(O)c1ccc(O)cc1)N1CCC(Cc2ccccc2)CC1 (stereo not given),TAB109,10,"inhibitor, single point"
CC(C(O)c1ccc(O)cc1)N1CCC(Cc2ccccc2)CC1 (stereo not given),CP211,16.94,"inhibitor, single point"
CC(C(O)c1ccc(O)cc1)N1CCC(Cc2ccccc2)CC1 (stereo not given),3D7,10,"inhibitor, single point"
CC(C(O)c1ccc(O)cc1)N1CCC(Cc2ccccc2)CC1 (stereo not given),PC15,10,"inhibitor, single point"
CC(C(O)c1ccc(O)cc1)N1CCC(Cc2ccccc2)CC1 (stereo not given),CP329,16.94,"inhibitor, single point"
CC(C(O)c1ccc(O)cc1)N1CCC(Cc2ccccc2)CC1 (stereo not given),ICS,17.78,"inhibitor, single point"
CC(C(O)c1ccc(O)cc1)N1CCC(Cc2ccccc2)CC1 (stereo not given),CP192,13.46,"inhibitor, single point"
CC(C(O)c1ccc(O)cc1)N1CCC(Cc2ccccc2)CC1 (stereo not given),AA1029,11.22,"inhibitor, single point"
CC(C(O)c1ccc(O)cc1)N1CCC(Cc2ccccc2)CC1 (stereo not given),CP260,11.22,"inhibitor, single point"
CC(C(O)c1ccc(O)cc1)N1CCC(Cc2ccccc2)CC1 (stereo not given),CP250,14.13,"inhibitor, single point"
CC(C(O)c1ccc(O)cc1)N1CCC(Cc2ccccc2)CC1 (stereo not given),CP217,11.22,"inhibitor, single point"
CC(C(O)c1ccc(O)cc1)N1CCC(Cc2ccccc2)CC1 (stereo not given),TAB113,11.22,"inhibitor, single point"

Once more, the final 3:

SMILES,condition,Potency (µM),curve as filed
CC(C(O)c1ccc(O)cc1)N1CCC(Cc2ccccc2)CC1 (stereo not given),CP250,14.13,"inhibitor, single point"
CC(C(O)c1ccc(O)cc1)N1CCC(Cc2ccccc2)CC1 (stereo not given),CP217,11.22,"inhibitor, single point"
CC(C(O)c1ccc(O)cc1)N1CCC(Cc2ccccc2)CC1 (stereo not given),TAB113,11.22,"inhibitor, single point"